# Results are given in words; binding and its absence hold for the method and conditions named. Some binding calls cover weakened binding; strength is not graded here.
# By UniProt entry, the sequences of proteins in these tests, tags left out. Residues count along the entry.
# UniProt P04629, residues 194-423: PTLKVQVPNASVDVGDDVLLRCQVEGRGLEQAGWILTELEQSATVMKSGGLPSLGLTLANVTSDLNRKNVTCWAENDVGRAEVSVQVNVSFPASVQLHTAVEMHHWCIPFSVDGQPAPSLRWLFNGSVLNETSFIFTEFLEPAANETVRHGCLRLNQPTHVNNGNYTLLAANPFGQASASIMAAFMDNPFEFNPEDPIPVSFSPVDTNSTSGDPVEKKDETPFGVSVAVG
# UniProt P35739, residues 33-418: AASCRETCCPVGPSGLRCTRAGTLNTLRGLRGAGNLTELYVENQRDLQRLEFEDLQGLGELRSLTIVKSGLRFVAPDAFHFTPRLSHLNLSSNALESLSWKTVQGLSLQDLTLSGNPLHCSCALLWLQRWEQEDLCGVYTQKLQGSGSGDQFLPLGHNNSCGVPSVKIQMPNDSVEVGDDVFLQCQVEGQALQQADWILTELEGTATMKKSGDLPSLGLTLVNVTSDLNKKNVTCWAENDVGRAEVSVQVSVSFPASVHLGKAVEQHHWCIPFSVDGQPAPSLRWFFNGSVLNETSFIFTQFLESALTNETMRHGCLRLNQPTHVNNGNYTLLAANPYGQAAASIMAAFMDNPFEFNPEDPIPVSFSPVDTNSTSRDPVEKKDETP
# B1: 27A6 (antibody, mouse IgG1, V domains shown)
# VH: QVQLQQSGAELMEPGASVKISCKATGYTFSRYWIEWVQQRPGHGLEWIGEILPGSGTTNYNENFRGKATFTADTSSNTVYMQLISLTSEDSAVYYCARSYYGDFDAYWGQGTLVTVSA
# VL: QAVVTQESALTTSPGETVTLTCRSSIGAVTTSNHANWVQEKPDHLFTGLIGGTNNRAPGVPARFSGSLIGDKAVLTITGAQTEDEAIYFCALWYSNHWVFGGGTKLTVLG
# notes: also called TrkA antibody; TrkA antibody of the present application
# Key:
# [1] = molecular target: D4-TM of human TrkA ECD (human) (UniProt P04629); assay: ELISA on TrkA ECD constructs (FIG. 1e)
# [2] = molecular target: recombinant rat TrkA ECD protein (rat) (UniProt P35739); assay: ELISA on recombinant TrkA ECD proteins (FIG. 1b)
binder,measurement,setting,value
B1,binding,[1],binds
same,binding,[2],binds

# Source: patent publication US20250084173A1 (4B TECHNOLOGIES SUZHOU, published 2025)
